Reference: publication PMC5415356
Changes are numbered by the printed parent chain. Results are given in words; binding and its absence hold for the method and conditions named. Binding seen in cells or lysates may run through a third protein. Some results given as binding are weak or reduced against the parent protein; the word gives no strength. Where a sequence is shown, tags or fusion partners need not be part of it.

Chains of the proteins cited; added tags and fusions are not shown.
UniProt P46937: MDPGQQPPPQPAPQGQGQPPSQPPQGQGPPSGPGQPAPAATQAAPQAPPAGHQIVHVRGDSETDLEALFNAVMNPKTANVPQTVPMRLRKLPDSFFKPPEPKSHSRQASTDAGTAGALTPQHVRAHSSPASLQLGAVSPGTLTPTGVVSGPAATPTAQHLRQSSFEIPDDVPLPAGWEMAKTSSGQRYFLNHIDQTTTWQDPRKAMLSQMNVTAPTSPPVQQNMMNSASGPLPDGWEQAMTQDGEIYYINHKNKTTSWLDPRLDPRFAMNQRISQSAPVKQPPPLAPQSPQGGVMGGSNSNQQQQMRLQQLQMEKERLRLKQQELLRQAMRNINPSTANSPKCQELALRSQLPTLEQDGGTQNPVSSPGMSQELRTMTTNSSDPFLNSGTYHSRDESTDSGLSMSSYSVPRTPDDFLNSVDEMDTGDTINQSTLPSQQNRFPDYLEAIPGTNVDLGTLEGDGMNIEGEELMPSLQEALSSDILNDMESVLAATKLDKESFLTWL

What was measured:
[1] = target: T1, HA-Amot-p130 (mouse (by the paper's numbering: Ser176 in mouse, Ser175 in human)) (UniProt Q8VHG2); assay: co-IP; HEK293-shAmot cells co-transfected with YAP and an Amot allele, fractionated into cytoplasmic, nuclear and plasma membrane fractions; Amot IP of each fraction, anti-YAP immunoblot
T1 sequence: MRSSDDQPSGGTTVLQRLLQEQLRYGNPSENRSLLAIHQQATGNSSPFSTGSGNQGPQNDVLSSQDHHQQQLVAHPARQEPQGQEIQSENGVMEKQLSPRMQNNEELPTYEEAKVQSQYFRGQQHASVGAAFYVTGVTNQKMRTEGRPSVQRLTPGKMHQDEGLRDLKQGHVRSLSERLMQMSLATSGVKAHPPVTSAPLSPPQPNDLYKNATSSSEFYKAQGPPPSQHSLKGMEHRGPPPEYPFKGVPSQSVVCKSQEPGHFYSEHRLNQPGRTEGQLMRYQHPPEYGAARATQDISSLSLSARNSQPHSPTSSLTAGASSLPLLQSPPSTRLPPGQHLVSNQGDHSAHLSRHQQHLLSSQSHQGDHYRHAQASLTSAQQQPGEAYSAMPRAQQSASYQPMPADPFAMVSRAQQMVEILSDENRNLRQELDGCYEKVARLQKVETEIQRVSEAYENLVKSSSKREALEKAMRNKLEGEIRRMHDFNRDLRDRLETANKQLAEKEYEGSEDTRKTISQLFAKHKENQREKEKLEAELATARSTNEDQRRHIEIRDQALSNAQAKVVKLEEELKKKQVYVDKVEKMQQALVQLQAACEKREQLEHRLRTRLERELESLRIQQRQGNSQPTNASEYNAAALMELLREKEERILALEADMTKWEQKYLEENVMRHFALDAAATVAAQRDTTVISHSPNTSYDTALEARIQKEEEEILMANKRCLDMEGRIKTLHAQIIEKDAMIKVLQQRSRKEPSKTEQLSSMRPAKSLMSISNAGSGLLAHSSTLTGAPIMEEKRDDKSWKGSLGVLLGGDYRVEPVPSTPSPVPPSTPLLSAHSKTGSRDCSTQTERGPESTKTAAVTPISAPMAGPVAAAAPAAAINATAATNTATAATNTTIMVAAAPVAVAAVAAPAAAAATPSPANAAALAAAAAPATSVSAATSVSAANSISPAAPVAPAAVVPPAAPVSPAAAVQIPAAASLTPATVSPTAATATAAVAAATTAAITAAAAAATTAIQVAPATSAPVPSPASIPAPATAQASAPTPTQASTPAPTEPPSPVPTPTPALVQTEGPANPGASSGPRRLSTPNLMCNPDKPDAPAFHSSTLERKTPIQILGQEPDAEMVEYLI

[2] = target: T2, HA-Amot-p130^S176E (mouse (by the paper's numbering: Ser176 in mouse, Ser175 in human)) (UniProt Q8VHG2); assay: co-IP; HepG2 cells co-transfected with YAP and an Amot allele, fractionated into cytoplasmic, nuclear and plasma membrane fractions; Amot IP of each fraction, anti-YAP immunoblot
T2 sequence: T1 sequence with S176E

For “V5-tagged YAP (from UniProt P46937 1-504)”, the binding [1] was “binds” and the binding [2] was “binds”.
